Part of at least one peptide drawing is inferred or uncertain, most often the ends. Peptide text beside a SMILES is read from it.
How the values were obtained:
AcPAK(128-144)OH = AcPAK(128-144)OH (Pseudomonas aeruginosa, UniProt P02973); format: binding; conditions: fold increase (+) or decrease (−) in affinity compared to antiserum 17-01
[1] = tested on: Pseudomonas aeruginosa strain PAO; conditions: in vivo
AcP1(126-148)OH = assay: Competition ELISA, antiserum affinity for P1 peptide; format: binding, Pseudomonas aeruginosa; conditions: for IC50: competition ELISA on PAK pili, read-out: I50 for P1; for PI A: fold increase (+) or decrease (−) in affinity compared to antiserum 17-01
AcPAO(128-144)OH = AcPAO(128-144)OH (Pseudomonas aeruginosa, UniProt P04739); format: binding; conditions: fold increase (+) or decrease (−) in affinity compared to antiserum 17-01
[2] = tested on: peptide antigen used to raise the antiserum; assay: Competition ELISA, antiserum affinity for its own peptide antigen; parameters: species or system Pseudomonas aeruginosa; conditions: peptide giving 50% inhibition of antibody binding to PAK pilin; read-out: Antigen I50
AcKB7(128-144)OH = assay: Competition ELISA, antiserum affinity for KB7 peptide; format: binding, Pseudomonas aeruginosa; conditions: for cross-reactivity of the antiserum with KB7: antiserum raised to the named peptide; for KB7 A: fold increase (+) or decrease (−) in affinity compared to antiserum 17-01; for IC50: peptide giving 50% inhibition of antibody binding to PAK pilin, read-out: KB7 I50

Compound | PAK A (AcPAK(128-144)OH) | protection / survival time after PAO wild-type challenge [1] | cross-reactivity of the antiserum with P1 (AcP1(126-148)OH; antiserum raised to the named peptide) | IC50 (AcP1(126-148)OH) | PI A (AcP1(126-148)OH) | PAO A (AcPAO(128-144)OH) | IC50 [2] | cross-reactivity of the antiserum with KB7 (AcKB7(128-144)OH) | KB7 A (AcKB7(128-144)OH) | IC50 (AcKB7(128-144)OH)
CC[C@H](C)[C@@H]1NC(=O)[C@H](Cc2ccccc2)NC(=O)[C@H](CCC(N)=O)NC(=O)[C@H](C)NC(=O)[C@H](CC(=O)O)NC(=O)[C@H](CCC(N)=O)NC(=O)[C@H](CC(=O)O)NC(=O)[C@H](CO)NC(=O)[C@H]([C@@H](C)O)NC(=O)[C@@H](NC(=O)[C@H](CCCCN)NC(C)=O)CSSC[C@@H](C(=O)N[C@@H](CO)C(=O)N[C@@H](CCCCN)C(=O)O)NC(=O)CNC(=O)[C@H](CCCCN)NC(=O)[C@@H]2CCCN2C1=O [E135A] (HELM PEPTIDE1{[ac].K.C.T.S.D.Q.D.A.Q.F.I.P.K.G.C.S.K}$PEPTIDE1,PEPTIDE1,3:R3-16:R3$$$V2.0) | +3.2 | enhanced survival time | cross-reactivity was found | 4 µM | +304 | +3.0 | 0.05 µM | cross-reactivity was found | +32.0 | 22 µM
CC(=O)N[C@@H](CCCCN)C(=O)N[C@H]1CSSC[C@@H](C(=O)N[C@@H](CO)C(=O)N[C@@H](CCCCN)C(=O)O)NC(=O)CNC(=O)[C@H](CCCCN)NC(=O)[C@@H]2CCCN2C(=O)[C@H](C)NC(=O)[C@H](Cc2ccccc2)NC(=O)[C@H](CCC(N)=O)NC(=O)[C@H](CCC(=O)O)NC(=O)[C@H](CC(=O)O)NC(=O)[C@H](CCC(N)=O)NC(=O)[C@H](CC(=O)O)NC(=O)[C@H](CO)NC(=O)[C@H]([C@@H](C)O)NC1=O [I138A] (HELM PEPTIDE1{[ac].K.C.T.S.D.Q.D.E.Q.F.A.P.K.G.C.S.K}$PEPTIDE1,PEPTIDE1,3:R3-16:R3$$$V2.0) | +1.5 |  |  | 176 µM | +6.9 | −3.8 | 0.05 µM | not able to effectively bind | −1.9 | 1320 µM

Reference: patent publication US20030228324A1, “Peptide compositions and methods of producing and using same” (priority 1999, published 2003)
